Measured values reported in patent US20220096649A1.
Substitutions are numbered along the chain they refer to. These are yes or no findings as the source states them, for the method shown. Some binding calls cover weakened binding; strength is not graded here.

Sequences of proteins named here, by UniProt entry; tags and fusion partners are left off. A change or cut given only in a name is not applied to a line headed by its entry. A line that says so, or that is headed by a name, gives the form on record, which may keep a tag or linker. Residues count along the entry.
SIRP-α human v2 (P78324, form named): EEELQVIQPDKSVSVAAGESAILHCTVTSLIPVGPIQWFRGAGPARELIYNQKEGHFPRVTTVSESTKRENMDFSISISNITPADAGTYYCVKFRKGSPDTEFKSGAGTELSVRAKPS
UniProt Q9P1W8, residues 29-147: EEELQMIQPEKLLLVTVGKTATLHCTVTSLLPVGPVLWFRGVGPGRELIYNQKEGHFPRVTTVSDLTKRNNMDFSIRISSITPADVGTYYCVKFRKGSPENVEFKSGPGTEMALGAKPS
UniProt O00241, residues 30-148: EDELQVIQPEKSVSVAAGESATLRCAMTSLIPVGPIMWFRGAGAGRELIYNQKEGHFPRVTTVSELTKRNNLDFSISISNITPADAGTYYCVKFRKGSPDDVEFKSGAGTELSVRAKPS

T1: SIRP-α mouse BL6 (mouse (BL6)) (UniProt P97797)
T1 sequence (looked up): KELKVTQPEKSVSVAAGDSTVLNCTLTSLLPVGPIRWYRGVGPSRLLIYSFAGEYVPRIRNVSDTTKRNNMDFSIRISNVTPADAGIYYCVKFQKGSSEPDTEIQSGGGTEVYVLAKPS

B1: Anti-SIRP-α antibody 119, light chain wt, heavy chain wt (antibody, V domains shown)
VH: EVQLLESGGGVVQPGGSLRLSCAASGFSFSNFAMTWVRQAPGEGLEWVSTIGSGDTYYADSVKGRFTISRDNSKNTLYLQMNSLRAEDTAVYYCAKDSTVSWSGDFFDYWGLGTLVTVSS
VL: EIVLTQSPATLSVSPGERATFSCRASQNVKNDLAWYQQRPGQAPRLLIYAARIRETGIPERFSGSGSGTEFTLTITSLQSEDFAVYYCQQYYDWPPFTFGGGTKVEIK
B2: Anti-SIRP-α antibody 119, light chain Mut, heavy chain wt (antibody, V domains shown)
VH: B1 VH
VL: B1 VL with F21L, R39K, E60A, T76S
B3: Anti-SIRP-α antibody 119, light chain wt, heavy chain Mut (antibody, V domains shown)
VH: B1 VH with M34V, E43K, L112Q
VL: B1 VL
B4: Anti-SIRP-α antibody 119, light chain Mut, heavy chain Mut (antibody, V domains shown)
VH: B1 VH with M34V, E43K, L112Q
VL: B1 VL with F21L, R39K, E60A, T76S
B5: Anti-SIRP-α antibody 119, light chain Mut, heavy chain Mut_V34M (antibody, V domains shown)
VH: B1 VH with E43K, L112Q
VL: B1 VL with F21L, R39K, E60A, T76S
B6: Anti-SIRP-α antibody 135, light chain wt, heavy chain wt (antibody, V domains shown)
VH: B1 VH with E1D, L5V, Q13R, G16E, N31I, F32Y, T35S, S53A, G54D, S101G
VL: EIVLTQSPATLSVSPGERVTFSCRASQNVRSDIAWYQQKPGQAPRLLIYAASSRDTGIPDRFSGSGSGTDFTLTISSLQSEDFGVYYCQQYYDWPPFTFGGGTKVEIK
B7: Anti-SIRP-α antibody 135, light chain Mut, heavy chain wt (antibody, V domains shown)
VH: B1 VH with E1D, L5V, Q13R, G16E, N31I, F32Y, T35S, S53A, G54D, S101G
VL: B6 VL with F21L, D60A
B8: Anti-SIRP-α antibody 135, light chain wt, heavy chain Mut (antibody, V domains shown)
VH: B1 VH with L5V, N31I, F32Y, M34V, T35S, E43K, S53A, G54D, S101G, L112Q
VL: B6 VL
B9: Anti-SIRP-α antibody 135, light chain Mut, heavy chain Mut (antibody, V domains shown)
VH: B1 VH with L5V, N31I, F32Y, M34V, T35S, E43K, S53A, G54D, S101G, L112Q
VL: B6 VL with F21L, D60A
B10: Anti-SIRP-α antibody 135, light chain wt, heavy chain Mut_V34M (antibody, V domains shown)
VH: B1 VH with L5V, N31I, F32Y, T35S, E43K, S53A, G54D, S101G, L112Q
VL: B6 VL
B11: Hum1/AB21_HC_Mutall (antibody, V domains shown)
VH: EVQLVESGGGVVQPGGSLRLSCAASGFTFSSNAMSWVRQAPGKGLEWVAGISAGGSDTYYPASVKGRFTISRDNSKNTLYLQMNSLRAEDTAVYYCARETWNHLFDYWGQGTLVTVSS
VL: SYELTQPPSVSVSPGQTARITCSGGSYSSYYYAWYQQKPGQAPVTLIYSDDKRPSNIPERFSGSSSGTTVTLTISGVQAEDEADYYCGGYDQSSYTNPFGGGTKLTVL
B12: Hum9/AB21_HC_Mutall (antibody, V domains shown)
VH: B11 VH
VL: B11 VL with S26A, T45L, L46V, N56G
B13: Anti-SIRP-α antibody 136, light chain Mut_I2T, heavy chain Mut_V34M (antibody, V domains shown)
VH: EVQLVESGGGVVQPGRSLRLSCAASGFTFSSYDMNWVRQAPGKGLEWVSLISGSGEIIYYADSVKGRFTISRDNSKNTLYLQMNSLRAEDTAVYYCAKENNRYRFFDDWGQGTLVTVSS
VL: ETVLTQSPGTLSLSPGERATLSCRASQSVYTYLAWYQQKPGQAPRLLIYGASSRATGIPDRFSGSGSGTEFTLTISSLQSEDFAVYYCQQYYDRPPLTFGGGTKVEIK
B14: Anti-SIRP-α antibody 136, light chain wt, heavy chain Mut (antibody, V domains shown)
VH: B13 VH with M34V
VL: B13 VL with S12T, S22T, Q38E
B15: Anti-SIRP-α antibody 136, light chain Mut, heavy chain Mut (antibody, V domains shown)
VH: B13 VH with M34V
VL: B13 VL with T2I
B16: Anti-SIRP-α antibody 136, light chain Mut_I2T, heavy chain Mut (antibody, V domains shown)
VH: B13 VH with M34V
VL: B13 VL
B17: Anti-SIRP-α antibody 136, light chain Mut_S12T, heavy chain Mut (antibody, V domains shown)
VH: B13 VH with M34V
VL: B13 VL with T2I, S12T
B18: Anti-SIRP-α antibody 136, light chain Mut_S22T, heavy chain Mut (antibody, V domains shown)
VH: B13 VH with M34V
VL: B13 VL with T2I, S22T
B19: Anti-SIRP-α antibody 136, light chain Mut_Q38E, heavy chain Mut (antibody, V domains shown)
VH: B13 VH with M34V
VL: B13 VL with T2I, Q38E

Molecular target: SIRP-α human v2 (human) (UniProt P78324)
Test: SPR, antibody on GLC chip, SIRP as analyte

binding, binds:
B1, B2, B3, B4, B5, B6, B7, B8, B9, B10, B11, B12

Molecular target: Human SIRPγ (human) (UniProt Q9P1W8)
Test: SPR, antibody on GLC chip, SIRP as analyte

binding, binds:
B1, B2, B4, B5, B6, B7, B8, B9, B10, B13, B14, B15, B16, B17, B18, B19, B11, B12

Molecular target: T1, SIRP-α mouse BL6 (mouse (BL6))
Test: SPR, antibody on GLC chip, SIRP as analyte

binding, binds:
B11

Molecular target: Human SIRPβ (human) (UniProt O00241)
Test: SPR, antibody on GLC chip, SIRP as analyte

binding, binds:
B1, B4, B5, B9, B10, B11, B12

Molecular target: SIRP-α cynomolgus (cynomolgus)
Test: SPR, antibody on GLC chip, SIRP as analyte

binding, binds:
B1, B2, B3, B4, B5, B6, B7, B8, B9, B10, B13, B11, B12
